The values are deposited in ChEMBL (CHEMBL3988442, “University of Dundee, Small-Polar-MMV Screening Library” (2021)).

Mtb glucose medium: 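Phenotypic screen: M. tuberculosis growth, glucose 7H9 medium, 3 days; the read-out is not stated. Compounds at 50 µM. The record gives no direction; compounds that gave an IC50 in retests scored well above the rest, so higher reads as more growth inhibition. About 69,000 compounds were tested under these conditions; 1.1% (about 760) showed 50% or more at least once.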
Mtb cholesterol medium: 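Whole-cell growth test on Mycobacterium tuberculosis, read after 4 days in a medium based on cholesterol and the lipid DPPC; the read-out is not stated. Tested at 50 µM. Higher reads as more growth inhibition (inferred: compounds with an IC50 in retests scored well above the rest). About 69,000 compounds were tested under these conditions; 0.54% (about 370) showed 50% or more at least once.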

Each number is a percent effect as filed. The record does not define 0% and 100%; most values in the screen are far below 50% and negative numbers occur (in some assays of this library far below -100). Compounds were drawn at random from those tested, without regard to their results. Two or more numbers in one place are separate tests of the same structure; such repeats can differ widely.

SMILES	Mtb glucose medium	Mtb cholesterol medium
CN(Cc1nc2c(cnn2C)c(=O)[nH]1)Cc1ccc(F)cc1F	-5.506	-11.04
COCc1ncn(Cc2nc(-c3ccc(OC)c(OC)c3)oc2C)n1	2.278	-3.17
O=C(CCOc1ccccc1F)N1CCOCC1	7.301	-5.138
Cc1ccccc1C(C)NC(=O)CSCC#N (centres undefined)	-35.78	-23.1
CS(=O)(=O)N1CCCC12CCCN(S(=O)(=O)c1cc(F)cc(F)c1)C2 (centres undefined)	19.37	3.858
Cc1nnc2ccc(C(=O)N3CCSC(C)(C)C3)cn12	-8.119	-2.549
COc1cc(NC(=O)NCc2cc(C)oc2C)cc(OC)c1	27.05	16.63
CS(=O)(=O)N1CCc2ccc(=O)n(CCN3CCCC3)c2CC1.O=C(O)C(F)(F)F	-1.009	2.659
CN(C)C(=O)COCc1nnc2n1CCN(Cc1ccoc1)C2.O=C(O)C(F)(F)F	-6.843 and -8.794	-8.941
N#CCCN(C(=O)CCc1cscn1)c1ccc2c(c1)OCCO2	-39.26	-1.015
c1csc(CCC2CCCCN2Cc2noc(C3CC3)n2)c1 (centres undefined)	5.238 and 25.43	21.03
[H][C@@]12CN(C(=O)CC3CC3)C[C@]1([H])C(=O)N(CCOC)C2	-5.631	6.086
CCOc1ccc2[nH]c(=O)c(CN3CCCCC3C)cc2c1 (centres undefined)	-5.496	-34.71
Cn1cc(Br)c(C(=O)NCCn2cc(Br)cn2)n1	26.78	9.289
Cc1cc(NC(=O)CN2CCCCC2Cn2nc(C)nc2C)on1 (centres undefined)	16.62	1.431
Cc1nn(C)c(C)c1C1CCCN1CC(=O)N(C)c1nccs1 (centres undefined)	3.749	-5.359
CN(C)c1ncccc1CNC(=O)NCC(c1cccs1)N(C)C (centres undefined)	6.456	-6.169
COc1ccc(C(C)NC(=O)NCCCn2cncn2)cc1F (centres undefined)	9.585	-1.111
Cc1ccc(-c2n[nH]cc2CN(Cc2nccn2C)C(C)C)cc1C	19.07	6.034
Cc1c(F)cc(C(=O)NCC(F)(F)F)cc1NCC(=O)N(C)C	-24.36	-4.527 and -2.514
CS(=O)(=O)CCN(Cc1cccc(O)c1)C1CCC(O)CC1 (centres undefined)	-1.401 and 17.03	-7.531 and -7.109
CC(=O)N1N=C(c2ccccc2)OC1C(=O)N(C)CCc1ccccc1 (centres undefined)	-25.05	-28.59
CC(C)n1cnc(C2CN(C)c3ccc(C(=O)NC4CCCC4)cc32)n1 (centres undefined)	14.86 and 1.53	12.56 and -5.688
CC(OCC1CC1)C(=O)N1CCCN(Cc2nccn2C(C)C)CC1 (centres undefined)	-12.83	-16.01
COCC(=O)NC1CCCN(c2ccc(C)cc2)C1=O (centres undefined)	-5.897	-11.73
CN1CCN(c2ncc(CNCCCc3cccc(F)c3)cn2)CC1	-69.25	-39.87
Cc1ccnn1CCN1CCCC2(CCC(=O)N(C3CCCC3)C2)C1 (centres undefined)	9.436	-0.999
CC(=O)c1cccc(NC(=O)CN2CCCCC2C)c1 (centres undefined)	-36.44 and -2.801	-15.69
O=C(c1cccs1)N1CCC(O)(CN2CCc3ccccc3C2)C1 (centres undefined)	-15.69	-15.72
C[C@H](NC(=O)N1CCC(Cc2ccccc2)CC1)C(=O)O	7.406	-13.62
Cc1nc(CN2CCN(C)C(=O)C23CCN(C(C)C)CC3)cs1.O=C(O)C(F)(F)F	-6.237	-29.01
Cc1nc(N2CCC(O)(c3ccc(F)cc3)CC2)c2c(C)nn(C)c2n1	6.115	-8.941
Cc1ccc(F)cc1C(=O)N1CCOCC12CCCC2	29.99	16.98 and 30.83
CCCc1nnc([C@H]2CCN(Cc3ncc[nH]3)C2)o1	-30.9 and -3.033	2.861
Cc1c(CN2CCC(C(=O)O)(n3ccnc3)CC2)oc2ccccc12	2.939	-10.73
CN(CC(C)(C)C)c1ccc(C(=O)NCCCc2ccccn2)cn1	-10.99	-2.369
COc1ccc(NC(=O)c2cnc(C3CCN(C(C)=O)C3)nc2C)cc1 (centres undefined)	-4.192	-28.07 and -21.29
O=C(Cc1ccccc1Cl)Nc1ccn(CCN2CCOCC2)n1	-21.8	-3.307
Cc1n[nH]c(C)c1CNC(=O)N1CCCC(Cc2nccn2C)C1 (centres undefined)	-14.66	20.19
CN(C)Cc1nn(C)c2c1CCN(S(=O)(=O)c1cccs1)C2	16.52	-2.275
Cc1cc(=O)[nH]c(-n2nc(-c3ccccc3)cc2N)n1	75.81	16.5
CCSCCNc1cc(C)nc2c(C)c(C)nn12	86.03	79.6 and 92.14
COc1ccccc1CNc1cnn(CC(F)F)c1	22.7	-9.312
O=C(N1CCCC1)C12CC(CN1Cc1nccs1)C2	-2.482 and 20.72	12.88
Cc1ccc(CS(=O)(=O)CC(=O)NCc2ccccc2F)cc1	29.44	-2.421
CC(C)NC(=O)C1CCN(Cn2ccc(-c3ccc(F)cc3)n2)CC1	0.3737 and -16.26	-25.88
CCS(=O)(=O)c1ncc(CN2CCCC2)n1CCc1ccccc1	0.7103	-2.678
Cc1ccccc1NC1CCN(C(=O)CCc2ccco2)CC1	44.67 and 51.23	37.87
Cc1cnn(CC2CCCCN2C(=O)c2cccc3c2OCO3)c1 (centres undefined)	4.999	27.1
CCc1noc(C(C)N(C)CC(=O)Nc2cccc(C)c2C)n1 (centres undefined)	0.4132	-15.01
[H][C@@]12CCCN1C[C@@H](CCSC)N(Cc1cnn(CC)c1C)C2	-3.2	-15.16
CC(=O)Nc1nc(-c2ccc(C)c(C)c2)c[nH]1	-9.103	-14.74
COc1cc(C2CC(=O)Nc3c2nc2n3CCCC2)cc2c1OCO2 (centres undefined)	-4.559	-6.933
COCCNS(=O)(=O)c1cccc2c1CN(C(=O)c1ccccc1)CC2	-16.87 and -14.77	-10.86
CC(C)[C@@H](CO)Nc1cc(-c2cn[nH]c2)ncn1	-7.284	-7.05
CCC(=O)NC1CCCN(c2cncc(OCc3ccccc3)n2)C1 (centres undefined)	31.77	3.32
COC(=O)C1CCCN1C(=O)c1ccc(Cl)cc1F (centres undefined)	-21.8	-16.04
CCc1nc(C)c([C@H]2CN(C)C[C@@H]2C(=O)Nc2ccc(OC)cc2)[nH]1	40.11	0.5177
CSc1ccc(C(C)NC(=O)c2cc(C)on2)cc1 (centres undefined)	21.55 and 7.949	1.842
CC(Nc1ccc(CN2CCCC2=O)cc1)c1ccc(C#N)cc1 (centres undefined)	23.49	7.606
O=C(Cc1ccc(F)cc1Cl)N[C@@H]1CCNC[C@H]1O	26.51	-2.374
Cc1nccc(N2CCCC(C)(C(=O)NC3CCCC3)C2)n1 (centres undefined)	1.113	-0.4681
Cc1ccc(C(=O)NCCNS(C)(=O)=O)c(=O)[nH]1	38.94	8.919
COC(=O)c1ccc(N(C(=O)c2cscn2)C(C)C)c(C)c1	3.659	-19.25
CN(Cc1coc(-c2ccccc2)n1)CC1CCCN1c1cccnn1 (centres undefined)	7.331	-12.73
Cc1nnc2n1CCN(CCOc1ccccc1)C2	12.39	0.9715
[H][C@@]12CN(CCc3ccccc3)C[C@]1([H])N(CCCN1CCOCC1)C(=O)O2	-24.58	-15.86 and -2.747
O=C(O)C(F)(F)F.O=C(O)c1c(NC2CCC2)ncc2c1CCN(C1CCOC1)C2 (centres undefined)	-49.94 and -6.282	-2.962
Cc1oc(-c2ccoc2)nc1CN1CCCCC1CCn1cccn1 (centres undefined)	3.067	8.306 and -5.334
CCCC1(CO)CCCN(Cc2nccs2)C1 (centres undefined)	-0.4152	-12.66
Cc1ccc(Nc2c(C#N)c(=O)n(C)c(=O)n2C)cc1F	11.83 and -1.854	10.12
COc1ccc(F)cc1C(=O)Nc1nnc(C)s1	-3.212 and -1.06	-18.52
CCOc1ccnc(NCc2nc(C)cc(C(F)(F)F)n2)n1	16.69	4.496

For reference, 6 entries once more:

SMILES,Mtb glucose medium,Mtb cholesterol medium
Cc1nn(C)c(C)c1C1CCCN1CC(=O)N(C)c1nccs1 (centres undefined),3.749,-5.359
Cn1cc(Br)c(C(=O)NCCn2cc(Br)cn2)n1,26.78,9.289
Cc1cc(=O)[nH]c(-n2nc(-c3ccccc3)cc2N)n1,75.81,16.5
COc1cc(C2CC(=O)Nc3c2nc2n3CCCC2)cc2c1OCO2 (centres undefined),-4.559,-6.933
Cc1c(F)cc(C(=O)NCC(F)(F)F)cc1NCC(=O)N(C)C,-24.36,-4.527 and -2.514
O=C(Cc1ccc(F)cc1Cl)N[C@@H]1CCNC[C@H]1O,26.51,-2.374